Results published in paper PMC11032411.
Results are given in words; binding and its absence hold for the method and conditions named. Binding seen in cells or lysates may run through a third protein. Some entries that bind do so weakly or less than the wild type.

The chains behind the UniProt entries cited, without tags or fusion partners. Residues count along the entry.
UniProt Q64726, residues 18-307: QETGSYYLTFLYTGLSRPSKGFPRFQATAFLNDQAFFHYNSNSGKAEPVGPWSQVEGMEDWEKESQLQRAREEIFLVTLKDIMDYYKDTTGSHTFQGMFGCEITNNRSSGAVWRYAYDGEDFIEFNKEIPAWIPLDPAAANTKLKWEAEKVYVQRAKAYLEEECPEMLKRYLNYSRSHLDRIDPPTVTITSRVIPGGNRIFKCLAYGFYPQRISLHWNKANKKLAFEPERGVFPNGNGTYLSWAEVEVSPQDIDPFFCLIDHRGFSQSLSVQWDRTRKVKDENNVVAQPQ

Biological target: T1, acylglycerol kinase (AGK) (mouse (endogenous in N2A, GT1-7)) (UniProt Q9ESW4)
T1 sequence: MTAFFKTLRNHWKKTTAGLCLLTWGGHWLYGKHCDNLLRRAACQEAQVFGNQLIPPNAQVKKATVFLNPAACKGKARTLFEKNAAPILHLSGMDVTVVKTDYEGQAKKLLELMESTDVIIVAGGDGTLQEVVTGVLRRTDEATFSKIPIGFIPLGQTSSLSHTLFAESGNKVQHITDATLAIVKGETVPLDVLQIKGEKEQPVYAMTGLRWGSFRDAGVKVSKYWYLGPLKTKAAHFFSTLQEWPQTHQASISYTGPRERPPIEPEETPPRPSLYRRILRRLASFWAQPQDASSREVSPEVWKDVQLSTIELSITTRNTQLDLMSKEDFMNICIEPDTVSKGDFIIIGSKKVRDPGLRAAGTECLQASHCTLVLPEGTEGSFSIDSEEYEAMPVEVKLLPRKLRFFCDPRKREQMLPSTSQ
Experiment: co-IP; lysates (500 ug protein) of N2A and GT1-7 cells transfected with LV-Azgp1 or LV-Agk for 48 h; 5 ug of antibody against AZGP1, AGK or IgG (negative control) at 4 °C overnight; protein A/G magnetic beads; immunoblotting

Question: With “Zinc-alpha2-glycoprotein (AZGP1) (from UniProt Q64726 18-307)” as the substance, how does the binding read?
Answer: The binding was “binds”.
